Data from PubChem BioAssay AID2685 (National Center for Advancing Translational Sciences (NCATS), 2010).
The list shows a part of the results. Shown are side measurements of this screen, not its main read-out; they come without a call. Compounds called inactive in the main read-out are mostly missing here. The note in brackets gives the kind of curve behind each potency; many fits are weak.

Experiment: qHTS Assay for Lipid Storage Modulators in Drosophila S3 Cells;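 for cell number change: cells counted by Cell Tracker Red CMTPX staining in the red channel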
Details: BODIPY lipid droplet fluorescence, 18-24 h; for cell number change: measured here: cell count max response, cells fed with added oleic acid
How it was run: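 Laser-scanning cytometry quantifies lipid droplet accumulation (500–530 nm total intensity; droplet/cell object ratio) in oleic acid-fed (400 uM added) Drosophila S3 cells treated with a concentration series. 20 uM Triacsin C defined 100% inhibition.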

[1] = measured here: lipid fluorescence (Fed channel) AC50, cells fed with added oleic acid
[2] = measured here: cell number channel AC50, cells fed with added oleic acid

Row | Structure (SMILES) | cell number change [%] | AC50 [1] | AC50 [2]
1 | O=C(c1ccccc1F)N1CCC(N2CCCCCC2)CC1 | -1.46 | 18.4 µM [rising, partial curve, poor fit] | 
2 | COc1ccc(C(=O)c2ccc(OC)cc2OC)cc1 |  | 2.31 µM [rising, partial curve] | 1.84 µM [rising, partial curve]
3 | Cc1ccc(C(=O)COC(=O)C(C)N2C(=O)C3C4CCC(C4)C3C2=O)cc1 (configuration not stated) |  | 32.6 µM [rising, single point] | 
4 | C=CCn1c(=N)c(S(=O)(=O)c2ccc(C)c(C)c2)cc2c(=O)n3ccccc3nc21 | 32.4 |  | 
5 | O=C(NCCc1ccccc1F)C1CCCN1S(=O)(=O)c1ccc2ccccc2c1 (configuration not stated) | -24 | 18.4 µM [falling, partial curve] | 
6 | O=C(Nc1cccc(-c2cccc(F)c2)c1)C1CCN(CC2CCOC2)CC1 (configuration not stated) | 53.1 | 6.51 µM [rising, full curve] | 29.1 µM [rising, single point]
7 | CN1CCN(c2ccc(NC(=O)c3ccc4c(c3)OCO4)cc2)CC1 | 3.52 | 0.231 µM [falling, full curve, poor fit] | 
8 | O=C(CSc1nc2ccccc2c(=O)n1CC1CCCO1)NCC1CCCO1 (configuration not stated) | -24.6 | 32.6 µM [falling, single point] | 
9 | CCOC(=O)C1=C(c2ccccc2)NC(=S)NC1C (configuration not stated) | -15.9 |  | 
10 | CCCCn1nc(C(=O)Nc2ccc3c(c2)OCCO3)c2ccccc2c1=O | -24 | 0.411 µM [rising, single point] | 0.164 µM [falling, full curve, poor fit]
11 | NCCNC(=O)c1c(NC(=O)c2ccccc2)sc2c1CCCC2 | -26 | 1.84 µM [rising, partial curve, poor fit] | 
12 | O=C(N/N=C/c1cccc(F)c1)c1ccc(Cl)cc1 | 10.4 | 29.1 µM [rising, single point] | 
13 | Cc1cc(F)ccc1NC(=O)Cn1c(C)csc1=O | 6.36 |  | 
14 | Cc1cccc(-c2nc(CS(=O)CC(=O)N3CC(C)CC(C)C3)c(C)o2)c1 (configuration not stated) | 2.64 | 0.58 µM [rising, single point] | 6.51 µM [rising, single point]
15 | CCOc1ccc(/C(O)=C2/C(=O)C(=O)N(CC3CCCO3)C2c2ccc(C)o2)cc1 (configuration not stated) | 190 |  | 29.1 µM [rising, single point]
16 | Cn1c(CSc2ncccn2)nnc1SCC(=O)N1CCCc2ccccc21 | 2.85 |  | 
17 | COc1cccc(C2CC(c3ccccc3)=NN2S(=O)(=O)c2ccccc2)c1OC (configuration not stated) | 4.22 | 3.26 µM [rising, partial curve] | 

Looked up above:
AC50 [1] with `Cc1ccc(C(=O)COC(=O)C(C)N2C(=O)C3C4CCC(C4)C3C2=O)cc1` (configuration not stated) is entered as 32.6 µM [rising, single point]
cell number change [%] with `O=C(Nc1cccc(-c2cccc(F)c2)c1)C1CCN(CC2CCOC2)CC1` (configuration not stated) is entered as 53.1
